Test results as given in patent US20240287164A1, “ANTIBODIES SPECIFIC TO NELL2 AND METHODS OF USE” (BOARD OF REGENTS, THE UNIVERSITY OF TEXAS SYSTEM, priority 2021, published 2024).
No constants are given. Whether binding was seen depends on the method and setting. Some entries that bind do so weakly or less than the wild type.

By UniProt entry, the sequences of proteins in these tests, tags left out. Residues count along the entry.
UniProt Q99435, residues 22-816: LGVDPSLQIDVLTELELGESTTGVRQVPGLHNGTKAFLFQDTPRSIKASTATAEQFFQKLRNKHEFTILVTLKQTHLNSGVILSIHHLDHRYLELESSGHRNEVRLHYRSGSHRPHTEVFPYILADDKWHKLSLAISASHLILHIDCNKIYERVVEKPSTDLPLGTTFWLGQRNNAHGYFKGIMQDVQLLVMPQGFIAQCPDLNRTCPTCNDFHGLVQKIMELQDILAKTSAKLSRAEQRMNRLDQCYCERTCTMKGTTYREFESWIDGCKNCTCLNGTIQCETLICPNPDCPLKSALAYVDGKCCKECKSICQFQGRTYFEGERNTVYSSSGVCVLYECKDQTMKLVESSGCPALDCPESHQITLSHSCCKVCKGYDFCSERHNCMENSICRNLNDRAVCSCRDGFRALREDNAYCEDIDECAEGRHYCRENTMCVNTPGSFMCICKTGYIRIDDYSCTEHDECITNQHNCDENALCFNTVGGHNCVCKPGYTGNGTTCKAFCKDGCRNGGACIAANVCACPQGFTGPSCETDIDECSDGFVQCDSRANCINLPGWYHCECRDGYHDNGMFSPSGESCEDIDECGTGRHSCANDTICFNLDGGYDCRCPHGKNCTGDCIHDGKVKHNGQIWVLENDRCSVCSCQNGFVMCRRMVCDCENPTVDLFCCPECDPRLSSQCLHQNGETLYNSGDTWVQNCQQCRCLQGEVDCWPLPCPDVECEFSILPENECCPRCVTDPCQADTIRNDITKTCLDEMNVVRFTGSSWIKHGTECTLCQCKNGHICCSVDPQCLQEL

Tests used:
[1] = biological target: T1, Robo3 (endogenous, on A-673 Ewing sarcoma cells) (human) (UniProt Q96MS0); experiment: ligand-binding assay on A-673 cells (FIG. 2B legend)
T1 sequence (looked up): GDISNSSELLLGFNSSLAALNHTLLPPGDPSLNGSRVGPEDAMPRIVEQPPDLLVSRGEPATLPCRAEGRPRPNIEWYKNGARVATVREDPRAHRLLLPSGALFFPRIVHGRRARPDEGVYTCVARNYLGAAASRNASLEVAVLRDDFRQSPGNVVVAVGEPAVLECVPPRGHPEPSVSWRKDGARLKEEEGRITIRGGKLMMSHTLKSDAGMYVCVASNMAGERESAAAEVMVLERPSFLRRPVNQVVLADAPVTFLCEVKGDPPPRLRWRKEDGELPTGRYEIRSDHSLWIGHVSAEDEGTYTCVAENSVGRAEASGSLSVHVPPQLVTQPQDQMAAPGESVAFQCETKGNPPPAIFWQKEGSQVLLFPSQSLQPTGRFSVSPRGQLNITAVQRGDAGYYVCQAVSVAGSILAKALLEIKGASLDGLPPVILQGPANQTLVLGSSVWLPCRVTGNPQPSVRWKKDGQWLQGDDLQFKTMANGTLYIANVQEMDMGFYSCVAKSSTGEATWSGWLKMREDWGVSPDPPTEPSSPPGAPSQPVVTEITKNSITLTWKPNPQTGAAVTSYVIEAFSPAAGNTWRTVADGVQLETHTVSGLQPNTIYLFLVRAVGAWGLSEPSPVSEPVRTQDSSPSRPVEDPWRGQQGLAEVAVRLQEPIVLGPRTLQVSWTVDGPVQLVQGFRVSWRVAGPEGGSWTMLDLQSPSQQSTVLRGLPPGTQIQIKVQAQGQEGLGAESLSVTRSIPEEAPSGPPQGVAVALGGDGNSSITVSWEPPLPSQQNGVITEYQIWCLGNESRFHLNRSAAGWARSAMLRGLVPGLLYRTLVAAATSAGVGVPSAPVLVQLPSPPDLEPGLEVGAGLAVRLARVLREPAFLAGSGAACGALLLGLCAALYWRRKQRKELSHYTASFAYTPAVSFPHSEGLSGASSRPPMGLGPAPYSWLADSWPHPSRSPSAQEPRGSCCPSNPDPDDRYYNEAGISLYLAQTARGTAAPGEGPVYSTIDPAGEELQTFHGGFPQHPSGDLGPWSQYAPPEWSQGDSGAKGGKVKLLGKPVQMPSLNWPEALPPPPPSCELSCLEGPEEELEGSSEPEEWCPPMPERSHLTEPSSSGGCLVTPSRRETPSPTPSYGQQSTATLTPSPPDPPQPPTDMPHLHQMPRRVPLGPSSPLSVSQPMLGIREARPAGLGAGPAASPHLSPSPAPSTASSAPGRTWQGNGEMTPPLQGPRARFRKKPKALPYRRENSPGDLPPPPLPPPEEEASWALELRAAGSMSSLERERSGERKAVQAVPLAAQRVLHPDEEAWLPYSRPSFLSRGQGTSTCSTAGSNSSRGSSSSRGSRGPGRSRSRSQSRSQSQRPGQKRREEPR

[2] = biological target: T1, Robo3 (endogenous, on A-673 Ewing sarcoma cells) (human); experiment: ligand-binding assay on A-673 cells, anti-FLAG immunoblot of whole cell lysate
[3] = biological target: T1, Robo3 (endogenous, on A-673 Ewing sarcoma cells) (human); experiment: ligand-binding assay: NELL2-FLAG incubated with A-673 cells for 0, 2, 4, 6, 8 or 24 hours, cells washed, whole cell lysate immunoblotted

Measured: binding

C-terminally FLAG-tagged NELL2 (from UniProt Q99435 22-816) (ligand)
binds: [1] | [2] | [3]
